# Test results: the odorant receptor screen of Mainland et al. (2015)
# Where “and” joins values, the source holds several entries; their conditions need not be identical. Equal entries are not always repeated. This is one part of the list. Each value is one well over the wells without odorant, computed here; the data are noisy.
# Key:
# Experiment in all cases: odorant receptor activation (CRE luciferase / Renilla) (fold of no-odor wells); higher = more activation
# Conditions in all cases: 100 µM
# [1] = system: OR51F2 clone 1330
# [2] = system: OR51G1 clone 1165
# [3] = system: OR51G2 clone 1199
# [4] = system: OR51H1 clone 1187
# [5] = system: OR51I2 clone 1133
# [6] = system: OR51L1 I281M clone 1535
# [7] = system: OR51L1 T196I/A207V clone 1533
# [8] = system: OR51L1 clone 1183
# [9] = system: OR51L1 clone 1534
# [10] = system: OR51Q1 clone 1190
# [11] = system: OR51T1 clone 1326
# [12] = system: OR52A1 S272P clone 1151
# [13] = system: OR51I1 clone 1555
# [14] = system: OR51J1 R75H clone 1698
# [15] = system: OR51M1 H91Q/L124F/I193T/P245H/F307L clone 1121
# [16] = system: OR51S1 clone 1699
# [17] = system: OR51V1 clone 1700
# [18] = system: OR51V1 clone 1701
# [19] = system: OR52A4 clone 1719
# [20] = system: OR52A5 clone 1568
Compound,odorant receptor activation [1],odorant receptor activation [2],odorant receptor activation [3],odorant receptor activation [4],odorant receptor activation [5],odorant receptor activation [6],odorant receptor activation [7],odorant receptor activation [8],odorant receptor activation [9],odorant receptor activation [10],odorant receptor activation [11],odorant receptor activation [12],odorant receptor activation [13],odorant receptor activation [14],odorant receptor activation [15],odorant receptor activation [16],odorant receptor activation [17],odorant receptor activation [18],odorant receptor activation [19],odorant receptor activation [20]
CC1=NC(C)SC1C (centres undefined),1.08,0.587,0.867,0.931,0.638,0.85 and 0.727,1.14 and 0.928,1.06,0.728 and 0.92,0.645,0.713,0.917,–,–,–,–,–,–,–,–
C=CCc1ccc(OC(C)=O)c(OC)c1 [eugenol acetate],1.57,2.17,1.9,1.47,1.6,1.84,2.26,2.5,1.78,2.21,1.6,2.06,1.81,2.25,1.61,1.63,1.55,2.45,2.37,2.09
CC12C=CCC1C1CCC3=CC(=O)CCC3(C)C1CC2 (centres undefined) [androstadienone],0.384 and 1.05,0.719,1.11,0.837,0.769,0.805 and 1.34,1.6 and 1.31,0.599,0.816 and 1.19,0.906,1.11 and 0.925,0.943,–,–,–,–,–,–,–,–
CC(=O)c1ccccc1 [acetophenone],0.87,1.12,1.06,1.18,1.2,1.26 and 0.876,0.754 and 0.725,1.34,0.934 and 0.617,1.01,2.17,1.13,–,–,–,–,–,–,–,–
CC(C)=CCCC(C)=CC=O [citral],0.987,1.14,0.935,1.11,1.21,0.887,0.698,0.885,0.677,1.02,1.15,0.901,1.43,0.048,1.58,0.035,0.009,0.984,1.03,1.36
C=C(C)C1CCC2=CC(=O)CC(C)C2(C)C1 (centres undefined) [amyl laurate],–,–,–,–,–,–,–,–,–,–,–,–,5.07,2.06,2.24,1.96,2,1.79,0.713,1.02
CC(C)CC(=O)O [isovaleric acid],0.811,1.01,1.51,1.2,0.996,0.847,0.747,1.14,0.924,0.996,0.571,1.23,0.828,0.847,1.33,0.988,1.02,1.15,0.977,1.03
C=CC(C)(O)CCC=C(C)C (centres undefined) [linalool],0.848,0.911,1.17,0.929,1.11,1.03,1.09,1.14,1.13,1.03,0.53,1.21,0.726,0.893,1.34,0.908,1.09,1.14,1.11,1.04

# Part of the list above, limited to odorant receptor activation [10] and odorant receptor activation [13].
Compound,odorant receptor activation [10],odorant receptor activation [13]
C=C(C)C1CCC2=CC(=O)CC(C)C2(C)C1 (centres undefined) [amyl laurate],–,5.07
CC(C)CC(=O)O [isovaleric acid],0.996,0.828
